According to the supplement of paper PMC10626197:
Several reference drugs read as weak here; read low effects with care.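 The breast cancer cell line MCF7 was treated with drug pairs over a dose grid. Each plate included DMSO-only wells as the untreated reference and a doxorubicin series as the total-kill control. These viability readings have no hit threshold applied.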

Test system: MCF7
Experiment: cell viability relative to DMSO control (raw); higher = more viable cells
Details: exposure time 72 h
Procedure: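 MCF7 cells, 1000 cells/well in 384-well plates, treated with 6x6 dose matrices of drug pairs (1:3 serial dilutions, DMSO as lowest dose) for 72 h at 37 °C. Viability read by CellTiter-Glo luminescence, 3 biological replicates. Normalised viability sets 0% at the highest doxorubicin dose and 100% at the 0,0 µM control per combination.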

Cc1ccc(NC(=O)c2ccc(CN3CCN(C)CC3)cc2)cc1Nc1nccc(-c2cccnc2)n1 [Imatinib] + CN1CCN(CCCN2c3ccccc3Sc3ccc(C(F)(F)F)cc32)CC1 [Trifluoperazine 2HCl]
cell viability [%]
Details | drug 2 concentration 0 µM | drug 2 concentration 0.185185 µM | drug 2 concentration 0.555556 µM | drug 2 concentration 1.66667 µM | drug 2 concentration 5 µM | drug 2 concentration 15 µM
drug 1 concentration 0.123457 µM | 94.6 | 83.7 | 87.4 | 83.6 | 57.8 | 0.412
drug 1 concentration 0.37037 µM | 82.2 | 77.4 | 79.8 | 74.5 | 25.9 | 0.623
drug 1 concentration 1.11111 µM | 88.8 | 89.6 | 84.3 | 82.2 | 63.7 | 0.559
drug 1 concentration 3.33333 µM | 86.5 | 84.5 | 80.7 | 86.6 | 5.29 | 0.263
drug 1 concentration 10 µM | 88.2 | 90.9 | 79.3 | 77.2 | 48.1 | 0.421

Cc1ccc(NC(=O)c2ccc(CN3CCN(C)CC3)cc2)cc1Nc1nccc(-c2cccnc2)n1 [Imatinib] + COc1cc(Nc2ncc3c(n2)-c2ccc(Cl)cc2C(c2c(F)cccc2OC)=NC3)ccc1C(=O)O [Alisertib]
cell viability [%]
Details | drug 2 concentration 0 µM | drug 2 concentration 0.0617284 µM | drug 2 concentration 0.185185 µM | drug 2 concentration 0.555556 µM | drug 2 concentration 1.66667 µM | drug 2 concentration 5 µM
drug 1 concentration 0.123457 µM | 86 | 81.7 | 76.1 | 73.5 | 75.7 | 69.9
drug 1 concentration 0.37037 µM | 88.6 | 77.9 | 80.2 | 82.8 | 81.3 | 79.9
drug 1 concentration 1.11111 µM | 75.2 | 81.9 | 81.9 | 73.6 | 78.2 | 73.5
drug 1 concentration 3.33333 µM | 91.9 | 95 | 90 | 85.4 | 84 | 80.5
drug 1 concentration 10 µM | 102 | 95.7 | 83.6 | 82.2 | 84.9 | 71.2

Cc1ccc(NC(=O)c2ccc(CN3CCN(C)CC3)cc2)cc1Nc1nccc(-c2cccnc2)n1 [Imatinib] + COc1ccc(CC2c3cc(OC)c(OC)cc3CC[N+]2(C)CCC(=O)OCCCCCOC(=O)CC[N+]2(C)CCc3cc(OC)c(OC)cc3C2Cc2ccc(OC)c(OC)c2)cc1OC [Atracurium (besylate)]
cell viability [%]
Details | drug 2 concentration 0 µM | drug 2 concentration 0.246914 µM | drug 2 concentration 0.740741 µM | drug 2 concentration 2.22222 µM | drug 2 concentration 6.66667 µM | drug 2 concentration 20 µM
drug 1 concentration 0.123457 µM | 107 | 105 | 99.5 | 102 | 97.4 | 67.1
drug 1 concentration 0.37037 µM | 115 | 111 | 120 | 116 | 109 | 85.9
drug 1 concentration 1.11111 µM | 109 | 114 | 118 | 118 | 107 | 72.8
drug 1 concentration 3.33333 µM | 104 | 107 | 112 | 105 | 99.3 | 68.2
drug 1 concentration 10 µM | 101 | 93.1 | 92.6 | 91.4 | 79.7 | 52.6
